Here are results for 1 compound from patent US7763616B2, “Piperazine-piperidines with CXCR3 antagonist activity” (Schering Corporation, priority 2005, dated 2010).

Amino acid sequences for entries named in this document (tags omitted). Residues count along the entry.
UniProt P49682, 5-368 limits assumed: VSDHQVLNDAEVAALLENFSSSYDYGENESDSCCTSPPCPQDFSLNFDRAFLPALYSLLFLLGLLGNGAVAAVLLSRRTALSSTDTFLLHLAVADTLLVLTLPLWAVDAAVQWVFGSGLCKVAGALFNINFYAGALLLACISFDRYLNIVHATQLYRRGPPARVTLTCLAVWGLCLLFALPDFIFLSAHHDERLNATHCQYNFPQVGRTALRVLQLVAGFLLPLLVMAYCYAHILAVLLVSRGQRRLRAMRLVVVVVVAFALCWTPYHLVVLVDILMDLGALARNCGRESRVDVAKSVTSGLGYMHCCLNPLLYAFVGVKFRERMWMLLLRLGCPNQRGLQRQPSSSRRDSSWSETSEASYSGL

In this assay the target is human CXCR3 (N-delta 4) (Homo sapiens, UniProt P49682). Nature of the assay: Human CXCR3 (N-delta 4) Scintillation Proximity Assay (SPA), [125I] IP-10 binding. Particulars: IC50 ratings; Ba/F3-hCXCR3 (N-delta 4) membranes, 25 pM [125I] IP-10. The source says:
The inventive compounds can readily be evaluated to determine activity at the CXCR3 receptors by known methods, such as, for example, development of a human CXCR3 (N-delta 4) Binding Assay.
Cloning and Expression of Human CXCR3 (N-delta 4):
The DNA encoding human CXCR3 was cloned by PCR using human genomic DNA (Promega, Madison, Wis.) as a template. The PCR primers were designed based on the published sequence of human orphan receptor GPR9 (1) with incorporated restriction sites, a Kozak consensus sequence, CD8 leader and Flag tag. […]
Ba/F3 cells expressing human CXCR3 (N-delta 4) were pelleted and resuspended in the lysis buffer containing 10 mM HEPES, pH 7.5 and Complete® protease inhibitors (1 tablet per 100 ml) (Boehringer Mannheim, Indianapolis, Ind.) at a cell density of 20×10^6 cells per ml. […] Total protein concentration of the membrane was determined by BCA method from Pierce (Rockford, Ill.). […]
For each assay point, 2 μg of membrane was preincubated for 1 hr with 300 μg wheat germ agglutinin (WGA) coated SPA beads (Amersham, Arlington Heights, Ill.) in the binding buffer (50 mM HEPES, 1 mM CaCl2, 5 mM MgCl2, 125 mM NaCl, 0.002% NaN3, 1.0% BSA) at room temperature. […] IP10 bound to the SPA beads was determined with a Wallac 1450 Microbeta counter.
On the technique in general: Scintillation proximity formats need no separation of bound from free tracer.

Usually IC50 stands for the concentration needed to halve the response being measured.

Each structure is given as a SMILES string. The match of structure and compound is tentative.

`CC[C@H]1CN(c2nc3[nH]c(=O)[nH]c3nc2Cl)CCN1C1CCN([C@@H](C(=O)OC)c2ccc(Cl)cc2)CC1`: the IC50 is < 25 nM.
